The other results are listed elsewhere or left out.

The chains behind the UniProt entries cited, without tags or fusion partners. Where a name states a change or a piece, a line headed by the entry shows the natural chain unless it says otherwise.
UniProt Q15751: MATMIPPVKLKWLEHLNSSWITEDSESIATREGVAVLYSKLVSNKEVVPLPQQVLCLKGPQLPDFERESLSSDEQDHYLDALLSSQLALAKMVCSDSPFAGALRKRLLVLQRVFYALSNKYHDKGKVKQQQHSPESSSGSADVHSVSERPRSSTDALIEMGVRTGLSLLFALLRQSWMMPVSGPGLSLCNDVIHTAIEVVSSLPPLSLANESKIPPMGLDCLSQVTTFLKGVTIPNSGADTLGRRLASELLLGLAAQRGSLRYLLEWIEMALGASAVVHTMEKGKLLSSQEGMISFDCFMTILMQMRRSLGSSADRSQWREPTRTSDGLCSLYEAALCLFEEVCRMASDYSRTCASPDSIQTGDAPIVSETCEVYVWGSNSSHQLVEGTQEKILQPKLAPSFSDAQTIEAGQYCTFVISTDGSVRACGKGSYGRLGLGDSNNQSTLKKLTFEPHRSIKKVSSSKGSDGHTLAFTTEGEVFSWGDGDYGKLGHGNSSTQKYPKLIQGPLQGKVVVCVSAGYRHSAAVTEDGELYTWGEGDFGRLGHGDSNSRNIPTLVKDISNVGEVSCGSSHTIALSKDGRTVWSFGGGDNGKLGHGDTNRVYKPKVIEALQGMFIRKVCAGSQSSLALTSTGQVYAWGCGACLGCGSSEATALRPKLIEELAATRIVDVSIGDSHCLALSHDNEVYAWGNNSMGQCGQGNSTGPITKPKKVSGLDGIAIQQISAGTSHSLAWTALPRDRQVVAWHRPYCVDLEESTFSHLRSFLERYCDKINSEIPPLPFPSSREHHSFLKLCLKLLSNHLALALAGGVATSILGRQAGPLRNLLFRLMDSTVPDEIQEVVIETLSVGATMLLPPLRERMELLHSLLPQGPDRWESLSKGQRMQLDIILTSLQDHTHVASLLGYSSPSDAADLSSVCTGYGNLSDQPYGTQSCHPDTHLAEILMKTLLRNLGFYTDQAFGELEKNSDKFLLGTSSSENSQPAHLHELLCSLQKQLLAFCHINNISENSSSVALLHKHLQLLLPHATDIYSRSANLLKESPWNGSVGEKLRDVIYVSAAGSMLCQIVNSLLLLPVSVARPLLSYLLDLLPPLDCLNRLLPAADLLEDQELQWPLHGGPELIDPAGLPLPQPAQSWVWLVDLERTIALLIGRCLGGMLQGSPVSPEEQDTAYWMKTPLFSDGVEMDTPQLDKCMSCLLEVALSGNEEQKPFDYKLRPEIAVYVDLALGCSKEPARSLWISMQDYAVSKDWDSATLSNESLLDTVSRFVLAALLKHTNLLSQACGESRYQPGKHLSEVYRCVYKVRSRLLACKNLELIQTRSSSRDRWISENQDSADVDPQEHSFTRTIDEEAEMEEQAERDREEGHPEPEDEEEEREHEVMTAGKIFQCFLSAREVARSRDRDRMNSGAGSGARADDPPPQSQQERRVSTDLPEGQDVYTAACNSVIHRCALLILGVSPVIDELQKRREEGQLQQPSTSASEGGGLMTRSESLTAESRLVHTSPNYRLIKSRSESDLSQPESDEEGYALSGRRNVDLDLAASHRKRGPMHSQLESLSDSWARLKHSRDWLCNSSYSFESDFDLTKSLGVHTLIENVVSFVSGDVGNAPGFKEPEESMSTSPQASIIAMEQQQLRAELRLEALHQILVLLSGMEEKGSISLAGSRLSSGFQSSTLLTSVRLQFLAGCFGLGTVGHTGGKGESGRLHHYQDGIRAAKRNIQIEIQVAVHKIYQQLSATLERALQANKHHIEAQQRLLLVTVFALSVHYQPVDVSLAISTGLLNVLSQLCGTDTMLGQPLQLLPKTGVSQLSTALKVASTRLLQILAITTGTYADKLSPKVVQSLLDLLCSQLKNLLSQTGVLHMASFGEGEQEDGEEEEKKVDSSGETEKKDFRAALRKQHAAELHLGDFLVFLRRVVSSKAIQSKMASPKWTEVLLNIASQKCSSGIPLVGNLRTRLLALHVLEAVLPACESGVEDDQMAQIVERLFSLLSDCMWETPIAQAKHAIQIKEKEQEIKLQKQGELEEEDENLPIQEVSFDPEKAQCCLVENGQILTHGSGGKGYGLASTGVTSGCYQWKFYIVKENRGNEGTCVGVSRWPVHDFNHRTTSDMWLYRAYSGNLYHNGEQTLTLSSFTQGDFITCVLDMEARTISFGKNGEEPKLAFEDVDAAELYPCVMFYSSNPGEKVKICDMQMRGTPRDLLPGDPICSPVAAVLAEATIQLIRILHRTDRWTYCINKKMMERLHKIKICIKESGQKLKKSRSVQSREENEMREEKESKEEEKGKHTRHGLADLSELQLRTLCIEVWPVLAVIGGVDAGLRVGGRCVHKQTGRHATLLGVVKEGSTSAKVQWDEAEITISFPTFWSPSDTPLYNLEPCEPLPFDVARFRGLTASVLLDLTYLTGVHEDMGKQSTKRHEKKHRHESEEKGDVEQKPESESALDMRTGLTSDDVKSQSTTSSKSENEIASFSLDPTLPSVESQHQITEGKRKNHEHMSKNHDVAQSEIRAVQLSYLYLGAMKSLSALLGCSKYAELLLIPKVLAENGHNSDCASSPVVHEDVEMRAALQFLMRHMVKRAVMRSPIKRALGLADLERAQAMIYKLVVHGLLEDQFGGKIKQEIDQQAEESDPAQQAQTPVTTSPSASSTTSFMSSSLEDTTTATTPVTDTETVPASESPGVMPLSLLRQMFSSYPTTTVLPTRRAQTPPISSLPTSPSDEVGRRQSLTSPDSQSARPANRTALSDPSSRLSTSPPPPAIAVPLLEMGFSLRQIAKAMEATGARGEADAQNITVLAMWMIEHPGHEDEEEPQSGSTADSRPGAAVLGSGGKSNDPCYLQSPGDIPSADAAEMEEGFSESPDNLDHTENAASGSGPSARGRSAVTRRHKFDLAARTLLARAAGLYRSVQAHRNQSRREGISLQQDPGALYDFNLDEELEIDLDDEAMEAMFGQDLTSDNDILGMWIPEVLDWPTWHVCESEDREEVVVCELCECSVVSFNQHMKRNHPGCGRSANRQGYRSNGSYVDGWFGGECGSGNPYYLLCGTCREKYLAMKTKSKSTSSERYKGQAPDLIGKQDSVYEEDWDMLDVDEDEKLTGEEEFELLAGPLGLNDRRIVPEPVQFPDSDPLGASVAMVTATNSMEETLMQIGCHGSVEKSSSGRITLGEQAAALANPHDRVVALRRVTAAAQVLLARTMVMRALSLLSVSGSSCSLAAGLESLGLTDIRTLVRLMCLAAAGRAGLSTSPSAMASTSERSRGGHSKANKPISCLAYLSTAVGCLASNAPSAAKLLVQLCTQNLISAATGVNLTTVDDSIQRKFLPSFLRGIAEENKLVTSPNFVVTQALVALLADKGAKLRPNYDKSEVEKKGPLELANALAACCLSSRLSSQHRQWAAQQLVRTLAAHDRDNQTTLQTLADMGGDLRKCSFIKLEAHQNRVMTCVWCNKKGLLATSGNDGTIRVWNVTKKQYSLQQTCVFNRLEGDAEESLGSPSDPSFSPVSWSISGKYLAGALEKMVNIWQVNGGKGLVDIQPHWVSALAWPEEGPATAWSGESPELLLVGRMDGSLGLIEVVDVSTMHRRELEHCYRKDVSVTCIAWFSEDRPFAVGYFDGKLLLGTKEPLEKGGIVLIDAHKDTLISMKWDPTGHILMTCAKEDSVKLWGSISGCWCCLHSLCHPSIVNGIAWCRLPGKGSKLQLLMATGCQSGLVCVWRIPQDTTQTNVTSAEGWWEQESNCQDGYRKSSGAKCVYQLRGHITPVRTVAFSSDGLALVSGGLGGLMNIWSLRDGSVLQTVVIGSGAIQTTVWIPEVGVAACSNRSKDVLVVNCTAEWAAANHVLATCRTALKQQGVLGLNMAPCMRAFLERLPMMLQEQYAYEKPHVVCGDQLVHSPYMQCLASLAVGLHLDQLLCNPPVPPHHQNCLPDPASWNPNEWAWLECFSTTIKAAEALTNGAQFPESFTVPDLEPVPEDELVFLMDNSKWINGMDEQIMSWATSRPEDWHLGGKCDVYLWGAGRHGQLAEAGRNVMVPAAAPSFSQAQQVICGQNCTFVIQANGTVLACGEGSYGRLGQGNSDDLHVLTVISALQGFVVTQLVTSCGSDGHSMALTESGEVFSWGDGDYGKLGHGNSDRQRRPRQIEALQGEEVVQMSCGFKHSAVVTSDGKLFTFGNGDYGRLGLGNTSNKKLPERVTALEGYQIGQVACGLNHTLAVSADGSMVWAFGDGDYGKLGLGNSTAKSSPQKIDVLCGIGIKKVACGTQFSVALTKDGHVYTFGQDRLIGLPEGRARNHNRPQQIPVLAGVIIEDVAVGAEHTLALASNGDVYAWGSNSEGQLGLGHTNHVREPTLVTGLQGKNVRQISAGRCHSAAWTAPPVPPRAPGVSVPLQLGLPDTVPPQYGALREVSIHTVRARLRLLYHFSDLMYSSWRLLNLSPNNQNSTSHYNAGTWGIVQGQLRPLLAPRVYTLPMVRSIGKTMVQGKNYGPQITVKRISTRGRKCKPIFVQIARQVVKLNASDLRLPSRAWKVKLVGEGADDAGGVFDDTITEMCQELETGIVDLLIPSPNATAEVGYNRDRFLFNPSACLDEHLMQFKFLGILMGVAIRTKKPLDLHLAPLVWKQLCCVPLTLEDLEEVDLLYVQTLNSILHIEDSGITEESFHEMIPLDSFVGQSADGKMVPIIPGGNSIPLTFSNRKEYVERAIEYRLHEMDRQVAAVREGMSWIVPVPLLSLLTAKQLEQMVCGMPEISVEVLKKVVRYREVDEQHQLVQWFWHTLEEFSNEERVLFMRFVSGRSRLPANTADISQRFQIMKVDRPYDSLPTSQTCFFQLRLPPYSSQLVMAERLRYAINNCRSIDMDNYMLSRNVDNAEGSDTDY
UniProt Q14103: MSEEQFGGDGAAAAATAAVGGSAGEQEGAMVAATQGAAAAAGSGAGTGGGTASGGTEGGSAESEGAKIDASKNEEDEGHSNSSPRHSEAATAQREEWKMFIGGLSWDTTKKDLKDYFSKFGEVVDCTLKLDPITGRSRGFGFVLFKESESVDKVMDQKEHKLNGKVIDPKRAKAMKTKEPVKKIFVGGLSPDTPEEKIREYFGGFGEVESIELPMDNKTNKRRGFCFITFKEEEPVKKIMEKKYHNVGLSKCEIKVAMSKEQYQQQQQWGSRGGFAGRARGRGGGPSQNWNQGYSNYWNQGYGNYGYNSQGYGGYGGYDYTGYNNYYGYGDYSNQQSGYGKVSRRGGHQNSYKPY
UniProt P00492: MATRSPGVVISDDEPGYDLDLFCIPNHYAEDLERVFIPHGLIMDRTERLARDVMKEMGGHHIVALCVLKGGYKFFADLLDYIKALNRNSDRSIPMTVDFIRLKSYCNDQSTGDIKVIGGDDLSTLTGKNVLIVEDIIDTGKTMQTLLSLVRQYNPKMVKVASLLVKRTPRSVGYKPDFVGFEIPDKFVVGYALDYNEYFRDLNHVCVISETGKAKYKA
UniProt Q16836: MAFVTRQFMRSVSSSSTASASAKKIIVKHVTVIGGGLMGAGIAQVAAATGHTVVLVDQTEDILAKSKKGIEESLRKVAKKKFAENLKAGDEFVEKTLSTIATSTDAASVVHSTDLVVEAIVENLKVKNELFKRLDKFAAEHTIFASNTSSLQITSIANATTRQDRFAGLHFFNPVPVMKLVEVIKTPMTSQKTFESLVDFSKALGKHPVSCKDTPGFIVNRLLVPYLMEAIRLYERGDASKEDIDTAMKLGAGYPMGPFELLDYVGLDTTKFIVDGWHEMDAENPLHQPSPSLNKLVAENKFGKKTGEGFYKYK
UniProt Q5SR56: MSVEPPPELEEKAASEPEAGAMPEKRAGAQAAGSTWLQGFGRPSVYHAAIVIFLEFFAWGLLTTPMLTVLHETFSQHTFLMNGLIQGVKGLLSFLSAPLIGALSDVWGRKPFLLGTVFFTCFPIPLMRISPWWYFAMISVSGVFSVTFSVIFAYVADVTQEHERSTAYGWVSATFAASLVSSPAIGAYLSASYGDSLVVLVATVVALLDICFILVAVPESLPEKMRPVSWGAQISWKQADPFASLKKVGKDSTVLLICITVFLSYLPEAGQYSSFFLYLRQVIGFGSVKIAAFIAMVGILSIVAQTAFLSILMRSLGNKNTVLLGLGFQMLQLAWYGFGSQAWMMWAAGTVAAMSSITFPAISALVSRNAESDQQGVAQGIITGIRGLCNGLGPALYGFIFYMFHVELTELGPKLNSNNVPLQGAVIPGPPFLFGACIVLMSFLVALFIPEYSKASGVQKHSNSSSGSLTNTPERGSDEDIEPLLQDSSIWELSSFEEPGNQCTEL
UniProt Q9UK76: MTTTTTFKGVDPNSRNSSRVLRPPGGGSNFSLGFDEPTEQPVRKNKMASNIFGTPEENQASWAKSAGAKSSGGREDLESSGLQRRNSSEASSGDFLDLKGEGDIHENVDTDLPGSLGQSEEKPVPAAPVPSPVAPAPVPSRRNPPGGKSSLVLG
UniProt Q9NQE9: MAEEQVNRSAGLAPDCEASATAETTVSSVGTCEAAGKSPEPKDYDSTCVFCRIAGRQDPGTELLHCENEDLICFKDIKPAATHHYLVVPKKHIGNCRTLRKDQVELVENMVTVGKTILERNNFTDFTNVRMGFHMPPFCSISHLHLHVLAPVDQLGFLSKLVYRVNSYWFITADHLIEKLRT

The results in this text go back to the supplement of paper PMC7666118.

Compound in this experiment: COc1ccc(Cn2ccc3cc(C)c(C(=O)NO)cc32)cc1
Nature of the experiment: dose-dependent thermal stabilisation call (2D-TPP, DLPTP, 10% FDR) (binary (1 = stabilised)); higher = stabilised by the compound. The following applies: system: HL-60 intact cells; concentration range 0.04-10 µM. Here is the method: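 2D thermal proteome profiling in intact HL-60 cells treated with BRD-3811 (0, 0.04, 0.29, 2, 10 uM) for 90 min at 37 C, then heated 3 min at one of 12 temperatures (42-63.9 C). Soluble protein was quantified by TMT10 MS. The value is the DLPTP call of the paper: dose-dependent thermal stabilisation over all temperatures at 10% FDR (F-test of a dose-response against a flat model); one experiment, one call per tested protein.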
Regarding GPATCH2 (UniProt Q9NW75), the “dose-dependent thermal stabilisation call” value is inactive: 0.
On to GZF1 (UniProt Q9H116), for which the “dose-dependent thermal stabilisation call” value is inactive: 0.
To GPR180 (UniProt Q86V85) belongs inactive: 0; to GTF3C2 (UniProt Q8WUA4), inactive: 0; to HIP1 (UniProt O00291), inactive: 0.
The value for HERC1 (UniProt Q15751) was inactive: 0; that for GOLPH3 (UniProt Q9H4A6) was inactive: 0; that for GTPBP3 (UniProt Q969Y2) was inactive: 0.
The value for HMGCR (UniProt P04035) was inactive: 0.
Regarding HABP4 (UniProt Q5JVS0), the “dose-dependent thermal stabilisation call” value is inactive: 0.
With GTSF1 (UniProt Q8WW33), the “dose-dependent thermal stabilisation call” value was inactive: 0.
To HNRNPD (UniProt Q14103) belongs inactive: 0.
To HPRT1 (UniProt P00492) belongs inactive: 0.
To GPBP1L1 (UniProt Q9HC44) belongs inactive: 0.
As to GTF2I (UniProt P78347), the “dose-dependent thermal stabilisation call” value was inactive: 0.
The value for HADH (UniProt Q16836) was inactive: 0; that for HIATL1 (UniProt Q5SR56) was inactive: 0.
For the target HMGB2 (UniProt P26583), the “dose-dependent thermal stabilisation call” value is inactive: 0.
As to GTF2H4 (UniProt Q92759), the “dose-dependent thermal stabilisation call” value is inactive: 0.
The value for HHEX (UniProt Q03014) was inactive: 0; that for HN1 (UniProt Q9UK76) was inactive: 0.
Regarding GRSF1 (UniProt Q12849), the “dose-dependent thermal stabilisation call” value is inactive: 0.
Consider HSPA14 (UniProt Q0VDF9), for which the “dose-dependent thermal stabilisation call” value was inactive: 0.
As to HARS (UniProt P12081), the “dose-dependent thermal stabilisation call” value is inactive: 0.
For the target GPKOW (UniProt Q92917), the “dose-dependent thermal stabilisation call” value is inactive: 0.
As for HEBP1 (UniProt Q9NRV9), the “dose-dependent thermal stabilisation call” value was inactive: 0.
The value for GTF2B (UniProt Q00403) was inactive: 0.
To GSN (UniProt P06396) belongs inactive: 0; to HPCAL1 (UniProt P37235), inactive: 0.
To HNRNPM (UniProt P52272) belongs inactive: 0; to HRAS (UniProt P01112), inactive: 0; to HEBP2 (UniProt Q9Y5Z4), inactive: 0.
As to GOLPH3L (UniProt Q9H4A5), the “dose-dependent thermal stabilisation call” value was inactive: 0.
The value for HECTD3 (UniProt Q5T447) was inactive: 0; that for GNS (UniProt P15586) was inactive: 0.
Take GPC1 (UniProt P35052): the “dose-dependent thermal stabilisation call” value is inactive: 0.
The value for GNPAT (UniProt O15228) was inactive: 0; that for HINT3 (UniProt Q9NQE9) was inactive: 0; that for GOLGA2 (UniProt Q08379) was inactive: 0.
The value for HDGF (UniProt P51858) was inactive: 0.
